Assay results from article doi:10.1101/2021.01.31.429078.

Legend:
Experiment in all cases: co-IP
[1] = target: T1, MST2 (endogenous, MCF10A cells) (human (endogenous in MCF10A)) (UniProt Q13188)
T1 sequence: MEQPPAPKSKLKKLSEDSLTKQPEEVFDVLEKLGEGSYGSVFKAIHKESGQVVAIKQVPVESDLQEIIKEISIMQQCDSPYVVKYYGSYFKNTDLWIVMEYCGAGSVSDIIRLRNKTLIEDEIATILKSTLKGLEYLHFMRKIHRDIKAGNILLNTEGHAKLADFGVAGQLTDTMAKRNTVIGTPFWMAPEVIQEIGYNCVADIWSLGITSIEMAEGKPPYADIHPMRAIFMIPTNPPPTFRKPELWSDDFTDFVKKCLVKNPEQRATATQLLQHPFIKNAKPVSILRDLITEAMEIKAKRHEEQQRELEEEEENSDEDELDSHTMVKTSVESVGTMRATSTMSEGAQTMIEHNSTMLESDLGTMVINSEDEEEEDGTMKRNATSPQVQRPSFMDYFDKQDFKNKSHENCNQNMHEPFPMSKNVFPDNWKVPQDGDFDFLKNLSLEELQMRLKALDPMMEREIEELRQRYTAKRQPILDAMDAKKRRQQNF

[2] = target: Flag-tagged βTrCP lacking the whole Fbox domain (βΔFbox)
[3] = target: Flag-tagged full length βTrCP
[4] = target: βTrCP (endogenous, HEK293T cells) (human (endogenous in HEK293T))

βTrCP (endogenous, MCF10A cells) (human (endogenous in MCF10A))
binding [1]: binds

B1: MST2 (endogenous, HEK293T cells) (protein, UniProt Q13188-1 1-491)
chain: T1 sequence
binding [2]: binds
binding [3]: binds

B2: Flag-Flag-Strep-Strep-tagged MST2 wild type (FFSS-MST2 wt) (protein, UniProt Q13188-1 1-491)
chain: T1 sequence
binding [4]: binds

B3: FFSS-tagged MST2 with the tripeptide EDS (16-18) deleted (protein, UniProt Q13188-1 1-491)
chain: MEQPPAPKSKLKKLSLTKQPEEVFDVLEKLGEGSYGSVFKAIHKESGQVVAIKQVPVESDLQEIIKEISIMQQCDSPYVVKYYGSYFKNTDLWIVMEYCGAGSVSDIIRLRNKTLIEDEIATILKSTLKGLEYLHFMRKIHRDIKAGNILLNTEGHAKLADFGVAGQLTDTMAKRNTVIGTPFWMAPEVIQEIGYNCVADIWSLGITSIEMAEGKPPYADIHPMRAIFMIPTNPPPTFRKPELWSDDFTDFVKKCLVKNPEQRATATQLLQHPFIKNAKPVSILRDLITEAMEIKAKRHEEQQRELEEEEENSDEDELDSHTMVKTSVESVGTMRATSTMSEGAQTMIEHNSTMLESDLGTMVINSEDEEEEDGTMKRNATSPQVQRPSFMDYFDKQDFKNKSHENCNQNMHEPFPMSKNVFPDNWKVPQDGDFDFLKNLSLEELQMRLKALDPMMEREIEELRQRYTAKRQPILDAMDAKKRRQQNF
binding [4]: binds

B4: FFSS-tagged MST2 with the tripeptide ESG (48-50) deleted (protein, UniProt Q13188-1 1-491)
chain: MEQPPAPKSKLKKLSEDSLTKQPEEVFDVLEKLGEGSYGSVFKAIHKQVVAIKQVPVESDLQEIIKEISIMQQCDSPYVVKYYGSYFKNTDLWIVMEYCGAGSVSDIIRLRNKTLIEDEIATILKSTLKGLEYLHFMRKIHRDIKAGNILLNTEGHAKLADFGVAGQLTDTMAKRNTVIGTPFWMAPEVIQEIGYNCVADIWSLGITSIEMAEGKPPYADIHPMRAIFMIPTNPPPTFRKPELWSDDFTDFVKKCLVKNPEQRATATQLLQHPFIKNAKPVSILRDLITEAMEIKAKRHEEQQRELEEEEENSDEDELDSHTMVKTSVESVGTMRATSTMSEGAQTMIEHNSTMLESDLGTMVINSEDEEEEDGTMKRNATSPQVQRPSFMDYFDKQDFKNKSHENCNQNMHEPFPMSKNVFPDNWKVPQDGDFDFLKNLSLEELQMRLKALDPMMEREIEELRQRYTAKRQPILDAMDAKKRRQQNF
binding [4]: binds

B5: FFSS-tagged MST2 with the tripeptide ESD (359-361) deleted (protein, UniProt Q13188-1 1-491)
chain: MEQPPAPKSKLKKLSEDSLTKQPEEVFDVLEKLGEGSYGSVFKAIHKESGQVVAIKQVPVESDLQEIIKEISIMQQCDSPYVVKYYGSYFKNTDLWIVMEYCGAGSVSDIIRLRNKTLIEDEIATILKSTLKGLEYLHFMRKIHRDIKAGNILLNTEGHAKLADFGVAGQLTDTMAKRNTVIGTPFWMAPEVIQEIGYNCVADIWSLGITSIEMAEGKPPYADIHPMRAIFMIPTNPPPTFRKPELWSDDFTDFVKKCLVKNPEQRATATQLLQHPFIKNAKPVSILRDLITEAMEIKAKRHEEQQRELEEEEENSDEDELDSHTMVKTSVESVGTMRATSTMSEGAQTMIEHNSTMLLGTMVINSEDEEEEDGTMKRNATSPQVQRPSFMDYFDKQDFKNKSHENCNQNMHEPFPMSKNVFPDNWKVPQDGDFDFLKNLSLEELQMRLKALDPMMEREIEELRQRYTAKRQPILDAMDAKKRRQQNF
binding [4]: binds

B6: FFSS-tagged MST2 with the tripeptide EDG (375-377) deleted (MST2-delEDG) (protein, UniProt Q13188-1 1-491)
chain: MEQPPAPKSKLKKLSEDSLTKQPEEVFDVLEKLGEGSYGSVFKAIHKESGQVVAIKQVPVESDLQEIIKEISIMQQCDSPYVVKYYGSYFKNTDLWIVMEYCGAGSVSDIIRLRNKTLIEDEIATILKSTLKGLEYLHFMRKIHRDIKAGNILLNTEGHAKLADFGVAGQLTDTMAKRNTVIGTPFWMAPEVIQEIGYNCVADIWSLGITSIEMAEGKPPYADIHPMRAIFMIPTNPPPTFRKPELWSDDFTDFVKKCLVKNPEQRATATQLLQHPFIKNAKPVSILRDLITEAMEIKAKRHEEQQRELEEEEENSDEDELDSHTMVKTSVESVGTMRATSTMSEGAQTMIEHNSTMLESDLGTMVINSEDEEETMKRNATSPQVQRPSFMDYFDKQDFKNKSHENCNQNMHEPFPMSKNVFPDNWKVPQDGDFDFLKNLSLEELQMRLKALDPMMEREIEELRQRYTAKRQPILDAMDAKKRRQQNF
binding [4]: binds weakly

These are yes or no findings as the source states them, for the method shown. Binding seen in cells or lysates may run through a third protein. Binding calls can cover weak binding; strength is not graded here. For some assays here: Tags and fused reporters may be left off the sequences shown.
